For three molecules, binding results are on record in article doi:10.1101/2025.11.21.689856.

No constants are given. Whether binding was seen depends on the method and setting. Binding seen in cells or lysates may run through a third protein. Some binding calls cover weakened binding; strength is not graded here. For some assays here: Sequences can lack the tags named with a protein.

Holding throughout (experiment): co-IP
In assay [1] the target is T1, Biglycan (BGN) (human (endogenous in hPAECs)) (UniProt P21810).
T1 sequence: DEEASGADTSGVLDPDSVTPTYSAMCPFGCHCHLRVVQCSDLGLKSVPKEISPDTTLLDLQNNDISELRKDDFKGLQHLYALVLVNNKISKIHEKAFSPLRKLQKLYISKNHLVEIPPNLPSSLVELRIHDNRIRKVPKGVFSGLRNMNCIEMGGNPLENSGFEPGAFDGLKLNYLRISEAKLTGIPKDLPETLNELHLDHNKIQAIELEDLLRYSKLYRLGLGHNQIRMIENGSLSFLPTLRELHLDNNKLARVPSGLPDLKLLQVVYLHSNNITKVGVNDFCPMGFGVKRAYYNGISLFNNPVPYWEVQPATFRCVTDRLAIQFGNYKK

The target in assay [2] is Thioredoxin domain containing 5 (TXNDC5) (human (endogenous in hPAECs)) (UniProt Q8NBS9).
The next assay addresses HA-TXNDC5 G351A (human) (UniProt Q8NBS9).
In a further assay the target is HA-TXNDC5 C89A (human) (UniProt Q8NBS9).
Assay [3] addresses HA-TXNDC5 (wild type) (human) (UniProt Q8NBS9).

As to “Thioredoxin domain containing 5 (TXNDC5) (from UniProt Q8NBS9 33-432)”, the binding entry in assay [1] is “binds”.

B1: Biglycan (BGN) (protein, UniProt P21810 38-368)
chain: T1 sequence
In the case of B1, the binding result in assay [2] is “binds”.

B2: FLAG-BGN (protein, UniProt P21810 38-368)
chain: T1 sequence
In the case of B2, the binding result (in the assay with HA-TXNDC5 G351A (human); with HA-TXNDC5 C89A (human); in assay [3]) was “binds” throughout.
